No constants are given. Whether binding was seen depends on the method and setting. Binding seen in cells or lysates may run through a third protein. Some binding calls cover weakened binding; strength is not graded here. Where a sequence is shown, tags or fusion partners need not be part of it.
Columns and labels:
[1] = molecular target: T1, C3G-mEGFP wild type (HEK293T, transient) (human) (UniProt Q13905); test: co-IP; HEK293T cells transiently expressing C3G-mEGFP, lysed 48 h after transfection; abGFP4 nanobody resin against GFP; endogenous CrkL by western blot
T1 sequence: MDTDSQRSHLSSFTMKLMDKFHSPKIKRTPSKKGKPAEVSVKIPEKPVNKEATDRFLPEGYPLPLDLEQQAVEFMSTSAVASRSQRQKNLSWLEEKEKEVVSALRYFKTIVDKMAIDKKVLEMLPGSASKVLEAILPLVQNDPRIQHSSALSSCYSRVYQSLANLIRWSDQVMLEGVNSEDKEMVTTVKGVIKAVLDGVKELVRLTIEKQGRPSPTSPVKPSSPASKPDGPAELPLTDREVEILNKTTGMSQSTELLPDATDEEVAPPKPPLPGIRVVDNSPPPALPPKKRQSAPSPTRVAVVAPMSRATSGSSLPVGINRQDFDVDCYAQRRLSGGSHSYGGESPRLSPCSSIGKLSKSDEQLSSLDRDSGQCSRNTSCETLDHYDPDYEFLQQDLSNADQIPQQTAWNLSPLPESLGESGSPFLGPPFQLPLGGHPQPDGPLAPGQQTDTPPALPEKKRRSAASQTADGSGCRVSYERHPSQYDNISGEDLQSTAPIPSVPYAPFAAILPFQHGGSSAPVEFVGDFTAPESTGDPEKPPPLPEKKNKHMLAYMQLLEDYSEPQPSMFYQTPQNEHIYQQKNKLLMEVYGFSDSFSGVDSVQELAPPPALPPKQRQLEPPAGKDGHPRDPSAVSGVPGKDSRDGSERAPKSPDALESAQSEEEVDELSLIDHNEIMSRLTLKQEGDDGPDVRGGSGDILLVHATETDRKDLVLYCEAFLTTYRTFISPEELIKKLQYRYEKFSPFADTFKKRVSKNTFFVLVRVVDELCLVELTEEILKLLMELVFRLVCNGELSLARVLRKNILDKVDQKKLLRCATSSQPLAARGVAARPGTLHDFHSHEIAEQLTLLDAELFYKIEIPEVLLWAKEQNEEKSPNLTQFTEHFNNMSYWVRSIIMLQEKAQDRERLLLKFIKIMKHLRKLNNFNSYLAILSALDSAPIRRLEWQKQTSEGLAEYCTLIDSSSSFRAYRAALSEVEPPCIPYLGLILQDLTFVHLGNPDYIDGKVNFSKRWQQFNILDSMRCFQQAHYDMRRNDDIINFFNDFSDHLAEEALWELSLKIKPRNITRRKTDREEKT

The chains behind the UniProt entries cited, without tags or fusion partners.
UniProt P46109: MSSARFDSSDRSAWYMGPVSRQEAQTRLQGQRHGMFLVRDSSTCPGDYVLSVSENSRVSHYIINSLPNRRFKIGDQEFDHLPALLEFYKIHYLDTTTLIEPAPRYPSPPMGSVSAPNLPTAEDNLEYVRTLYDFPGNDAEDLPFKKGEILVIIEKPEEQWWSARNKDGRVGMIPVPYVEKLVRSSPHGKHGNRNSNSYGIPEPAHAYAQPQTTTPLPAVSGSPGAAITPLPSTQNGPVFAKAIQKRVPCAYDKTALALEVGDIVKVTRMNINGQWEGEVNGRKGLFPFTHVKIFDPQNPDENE

[2] = molecular target: T2, C3G-mEGFP wild type (Jurkat, stable) (human) (UniProt Q13905); test: co-IP; Jurkat cells stably expressing C3G-mEGFP; lysate (0.5% Triton X-100, 150 mM NaCl) on abGFP4 nanobody resin against GFP overnight at 4 °C; endogenous CrkL by western blot
T2 sequence: T1 sequence

Substance	binding [1]	binding [2]
endogenous CrkL (HEK293T cells) (from UniProt P46109 1-303)	binds	
endogenous CrkL (Jurkat cells) (from UniProt P46109 1-303)		binds

Reference: publication PMC9896810
